Laboratory results reported in patent US10907134B2, “Mutated genes for the catalytic protein of oplophorus luciferase and use thereof” (JNC CORPORATION, priority 2013, dated 2021).

B1: KAZ-V44I-A54I: KAZ mutant with two amino acid substitutions V44I and A54I, SEQ ID NO: 10 (protein)
chain: FTLADFVGDWQQTAGYNQDQVLEQGGLSSLFQALGVSVTPIQKIVLSGENGLKIDIHVIIPYEGLSGFQMGLIEMIFKVVYPVDDHHFKIILHYGTLVIDGVTPNMIDYFGRPYPGIAVFDGKQITVTGTLWNGNKIYDERLINPDGSLLFRVTINGVTGWRLCENILA
B2: KAZ-V44I-Y138I: KAZ mutant with two amino acid substitutions V44I and Y138I, SEQ ID NO: 12 (protein)
chain: B1 chain with I54A, Y138I
B3: KAZ-A54I-Y138I: KAZ mutant with two amino acid substitutions A54I and Y138I, SEQ ID NO: 14 (protein)
chain: B1 chain with I44V, Y138I
B4: KAZ-V44I-A54I-Y138I: KAZ mutant with three amino acid substitutions V44I, A54I and Y138I, SEQ ID NO: 16 (protein)
chain: B1 chain with Y138I
B5: KAZ-A54I: KAZ with single amino acid substitution A54I, SEQ ID NO: 6 (protein)
chain: B1 chain with I44V
B6: KAZ-Y138I: KAZ with single amino acid substitution Y138I, SEQ ID NO: 8 (protein)
chain: B1 chain with I44V, I54A, Y138I
B7: KAZ: wild 19 kDa catalytic protein of Oplophorus luciferase (19kOLase), amino acid sequence SEQ ID NO: 2 (protein, listed as Oplophorus gracilirostris)
chain: B1 chain with I44V, I54A
B8: KAZ-V44I: KAZ with single amino acid substitution V44I, SEQ ID NO: 4 (protein)
chain: B1 chain with I54A

What follows are molecules tested on CHO-K1 cells (assay: Luminescence activity of KAZ mutants expressed in animal culture cells without secretional signal peptide sequence). Settings: Table 12; pcDNA3- vectors without secretion signal; CHO-K1.
Format: cell-based, Chinese hamster
Method: Chinese hamster ovary cell line CHO-K1 was cultured in Ham's F-12 medium (manufactured by Wako Pure Chemical Industries, Ltd.) supplemented with 10% (v/v) fetal bovine serum (manufactured by Biowest Inc.). The CHO-K1 cells were plated in a 6-well plate in 1×10^5 cells/well/2 mL medium (n=2) and cultured in an incubator at 37° C. in 5% (v/v) CO2. After 24 hours, the purified recombinant plasmid was transfected to CHO-K1 cells using a FuGene HD transfection kit (manufactured by Promega Corp.), which was provided for subsequent experiment. Specifically, 1 μg of the recombinant plasmid pGL4.13 [Luc2/sv40], 0.1 μg of the internal standard vector and 3 μL of FuGene HD were added to 100 μL of the medium, which was allowed to stand at room temperature for 15 minutes. Subsequently, 100 μL of the DNA-FuGene complex was added to the cells in the 6 wells. After incubation for 48 hours, the culture medium was collected. On the other hand, the KAZ mutants expressed in the cells were washed 3 times with 3 mL of 1×PBS, then suspended in 1 mL of 1×PBS and disrupted on ice by ultrasonication, which was used as enzyme solutions of the cell-extracts of KAZ mutants.
A luminescence reaction was started by adding 5 μL of the culture media and cell extracts obtained in EXAMPLE 10 to 100 μL of 30 mM Tris-HCl (pH 7.6)-10 mM EDTA (manufactured by Wako Pure Chemical Industries, Ltd.) containing 0.5 μg of coelenterazine (manufactured by INC Corp.). The luminescence activity was determined using a luminometer (manufactured by Atto Inc.: AB2200) for 60 seconds, and the maximum intensity of luminescence (Imax) was defined as a percentage.
The gene fragments of the KAZ mutants with two amino acid substitutions and three amino acid substitutions and nanoKAZ containing the Kozak sequence were digested with restriction enzymes Asp718 and XbaI, and inserted into the Asp718-XbaI site of pcDNA3 vector (manufactured by Invitrogen Inc.) to construct the vectors of pcDNA3-KAZ-V44I, pcDNA3-KAZ-A54I, pcDNA3-KAZ-Y138I, pcDNA3-KAZ-V44I-A54I, pcDNA3-KAZ-V44I-Y138I, pcDNA3-KAZ-A54I-Y138I and pcDNA3-KAZ-V44I-A54I-Y138I.
The culture media of the KAZ mutants with two amino acid substitutions and KAZ mutants with three amino acid substitutions and the enzyme solutions of cell-extracts of KAZ mutants were obtained in the same manner as EXAMPLE 10.
Luminescence activities of the resulting enzyme solutions and enzyme solutions of the cell-extracts of KAZ mutants were determined in the same manner as EXAMPLE 11.
With B1 the “Rate of Secretion (Medium/Cell Extracts)” value was 0.0022.
With B2 the “Rate of Secretion (Medium/Cell Extracts)” value was 0.0026.
With B3 the “Rate of Secretion (Medium/Cell Extracts)” value was 0.0023.
With B4 the “Rate of Secretion (Medium/Cell Extracts)” value was 0.0014.
With B5 the “Rate of Secretion (Medium/Cell Extracts)” value was 0.0045.
In the case of B6, the “Rate of Secretion (Medium/Cell Extracts)” value is reported as 0.0047.
B7 was tested, and the “Rate of Secretion (Medium/Cell Extracts)” value was 0.03.
With B8 the “Rate of Secretion (Medium/Cell Extracts)” value was 0.016.

Same assay, conditions: vectors without a secretion signal; animal culture cells
B1 was tested, and the “Secretion from the cells” value was “not secreted from animal culture cells”.
With B2 the “Secretion from the cells” value was “not secreted from animal culture cells”.
For B3, the “Secretion from the cells” value was “not secreted from animal culture cells”.
B4 was tested, and the “Secretion from the cells” value was “not secreted from animal culture cells”.

Where a chain is given by its changes, count along the chain named. In names and notes the source's numbering stands. Some compounds share one wording; it may come from a single statement.
